Here are results for 167 variants from the RNAGym collection of RNA variant scans (doi:10.1126/science.aae0568).

To fix the notation:
B1: tRNA (parent)
chain: GUUCCGUUGGCGUAAUGGUAACGCGUCUCCCUCCUAAGGAGAAGACUGCGGGUUCGAGUCCCGUACGGAACG

This sample is rich in variants without activity.

Variants of B1 are the subject of the series. Briefly: yeast fitness relative to wild type (ratio to wild type); higher = fitter; tRNA-Arg(CCU), competitive growth, 37 C, YPD. An outline of the steps:
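The tRNA-Arg(CCU) gene variants were made by chemical synthesis with a 3% per-site mutation rate at 69 sites and inserted at the native genomic locus of Saccharomyces cerevisiae. After pooling, the strains were competed in YPD at 37°C for 24 hours in six parallel replicates. Gene amplicons from the start population and each end population were read by 100-nucleotide paired-end sequencing, and Darwinian fitness relative to wild type was taken from genotype frequency changes. Genotypes needed ≥ 100 starting reads, and estimates < 0.5 were set to 0.5.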
Consider U2G A21U C22U, for which the yeast fitness was at most 0.5.
Next, C5U G44C C61U: 0.702; C34G C66A A69C: 0.599.
In the case of G17A A36C A70C it was at most 0.5; in that of A15G G23C C30A A42C G51C C61A G67A, at most 0.5; in that of A15G G41C A43C, at most 0.5.
Turning to C11G A43U U54G G67U, the yeast fitness is at most 0.5.
On to A14G C29G A37G C46U C66G, for which the yeast fitness is at most 0.5.
In the case of G10C C27G U32A, the yeast fitness is at most 0.5.
Consider G10A U16A C31A G51A U59A, for which the yeast fitness was at most 0.5.
C11U A20C C55U C66G: the yeast fitness is at most 0.5.
As for C5G U7C A36C A57U C61A C66G, the yeast fitness was at most 0.5.
For the variant A14C C31G G44C, the yeast fitness was at most 0.5.
Take C5U A37C A42U: the yeast fitness was at most 0.5.
With U8A U26G, the yeast fitness is 0.666.
For the variant C11A A42G A43U C46U C55G U59A G63A, the yeast fitness is at most 0.5.
With C24U C29A A65C, the yeast fitness is at most 0.5.
Take G25C C29G A43G: the yeast fitness was at most 0.5.
In the case of C5U A14G U53A it was at most 0.5.
For C4G A20C C24G A37G, the yeast fitness is at most 0.5.
As to A20C U26C C60A A65U, the yeast fitness was at most 0.5.
As for C24U U26A G63C, the yeast fitness was at most 0.5.
Turning to U3A U19A C33U G52C A65G, the yeast fitness is at most 0.5.
As for A14U A20G U32G, the yeast fitness was at most 0.5.
Turning to U8A G23C G63C, the yeast fitness was at most 0.5.
In the case of A15C C33U C49U it was at most 0.5.
Regarding U3C C24G C29A A43U G68C, the yeast fitness is at most 0.5.
With C11A A15G A20G A37C G50A, the yeast fitness is at most 0.5.
As to U16A G17A C22G C55G G63C, the yeast fitness is at most 0.5.
G17A C27U A36C C55A: the yeast fitness was at most 0.5.
With U8A C61G, the yeast fitness was at most 0.5.
Regarding U26G C33G U35A C62A, the yeast fitness is at most 0.5.
Take U53G C62U A70G: the yeast fitness was at most 0.5.
Consider C5A C30U U35A A42G C61U, for which the yeast fitness is at most 0.5.
Next, C5A U54C C61U C62U A69U: 0.546; U2A C27A C49G: at most 0.5.
Take U7G C11U G12C C33U C61G C62G C66U: the yeast fitness is at most 0.5.
As for G6C A14U G51U C60U C62U A65C A69G, the yeast fitness was at most 0.5.
In the case of C31G G38A C61A G63A, the yeast fitness was at most 0.5.
A15G A57G: the yeast fitness was 0.899.
As for C5G C24U U26C G63A A65G, the yeast fitness is at most 0.5.
In the case of C5U C31G C33G C34U A43C A57C it was at most 0.5.
For C24G C33G A36C A37C A42C, the yeast fitness was 0.505.
For the variant C29A U35G G51A, the yeast fitness is at most 0.5.
Next, C5U G17C C55U C66G: at most 0.5.
For A21G G25C C27G A42C G63C A65U, the yeast fitness is at most 0.5.
In the case of G18C A37U A40U U64C G67A it was at most 0.5; in that of C27G C29U G68C, at most 0.5.
With C4A C55U, the yeast fitness is 0.943.
As for A14G G23A A70C, the yeast fitness was at most 0.5.
As for C11U G12A C31U U53C A65C, the yeast fitness is at most 0.5.
With U8C A36U G38A, the yeast fitness was at most 0.5.
Take A14U A43C C49G C62G: the yeast fitness was at most 0.5.
For the variant G17C G25C C30U A65C, the yeast fitness was at most 0.5.
In the case of C5G C34G A57G A69U it was at most 0.5; in that of U2A C49G C55G, at most 0.5.
With C5A A40U C60U C61G, the yeast fitness was 0.525.
In the case of C11G G18A A21G, the yeast fitness was at most 0.5.
A20G U26G A45C C49G: the yeast fitness was at most 0.5.
As for C5A C34G A36G, the yeast fitness is at most 0.5.
In the case of U28G C30G A42U it was at most 0.5; in that of C5G C11U A20C U54A, at most 0.5; in that of C11U C29U C30U U59A, at most 0.5.
Turning to U3A C27A A36G A70U, the yeast fitness is at most 0.5.
In the case of G6C C34G G38A C61U, the yeast fitness is at most 0.5.
In the case of C4A G23A C33G C60A A70C it was at most 0.5.
As for C30A C34G A40G, the yeast fitness is at most 0.5.
As to G6C C62A, the yeast fitness was 0.798.
As for U2C C27U, the yeast fitness was determined as 0.881.
Take G9C A37U A43G C55U: the yeast fitness was at most 0.5.
Consider C46U C66U, for which the yeast fitness came out at 1.02.
Take C5G C11A A15G G18A C30G: the yeast fitness was found to be 0.587.
In the case of C11A U16C U32G C49G it was at most 0.5; in that of C27U A45C G63A, 0.68.
In the case of G10A G17C C30G C33G C61A A65U, the yeast fitness is at most 0.5.
As to U2C U8C U13G A37U C60G A70C, the yeast fitness was at most 0.5.
Turning to U28A A40G A65U, the yeast fitness is at most 0.5.
As to A15G A20G C27A A40G A45C A57G, the yeast fitness is at most 0.5.
In the case of U3A C34U C61U G68C it was at most 0.5; in that of U8C A15C A20U G67C, at most 0.5.
On to G9C A14G U16G G23A C33A G44A, for which the yeast fitness is at most 0.5.
Next, C4U C61U A70G: 0.777; C31U A37G C61A: at most 0.5.
Turning to C5A G23A C24U A36C, the yeast fitness is at most 0.5.
As for C24G A45U A57U, the yeast fitness is at most 0.5.
In the case of G25C A37G A57C it was at most 0.5; in that of C5U U7A A21U C27G C29G, at most 0.5; in that of U2G U8A G23A U32C A45G C60U C66G, at most 0.5.
With C22U G25A C61G, the yeast fitness is at most 0.5.
With C5G G17A C30A C31A C49U C55G, the yeast fitness is at most 0.5.
Turning to C24G U26A C33U, the yeast fitness is at most 0.5.
With U13A C22U G63C, the yeast fitness was at most 0.5.
Consider U7A A20G C31U U35C A57C G67C, for which the yeast fitness is at most 0.5.
As for C24U C34U C46A U54C, the yeast fitness is at most 0.5.
With C5U A40C G48C, the yeast fitness is at most 0.5.
As for A20U G38C G50C A65C, the yeast fitness was at most 0.5.
In the case of C31G A45C C60A it was at most 0.5; in that of G17A A21G U28G C62G, at most 0.5; in that of A42C G63C G67A, at most 0.5.
Consider G38A C66G A69U, for which the yeast fitness is at most 0.5.
Next, C11U C27G A36G G63C C66U: at most 0.5.
As for C5G C31U A36C G38A, the yeast fitness is 0.557.
Turning to C11G U32A A37G A70U, the yeast fitness is at most 0.5.
Regarding C4A C34G G38C G68A, the yeast fitness was at most 0.5.
Consider C11G C31A C33U G39C, for which the yeast fitness was at most 0.5.
Take C5A U19G A43U: the yeast fitness stood at 0.656.
With C27A G44C G50C, the yeast fitness turned out to be 0.639.
Regarding U28G A45G G51C A70G, the yeast fitness was at most 0.5.
Turning to U13C C29G U59A C60G C62U, the yeast fitness was at most 0.5.
Take A15U U35C G48U C55G: the yeast fitness is at most 0.5.
For the variant C11G U13C A37U, the yeast fitness is at most 0.5.
G18C A37G A43U: the yeast fitness is at most 0.5.
For the variant C5G A21C C30G C34U G38C C49U A70C, the yeast fitness is at most 0.5.
A14U C24G U54G: the yeast fitness was at most 0.5.
Regarding U3A A20G A37C C55G C61U, the yeast fitness was at most 0.5.
Regarding A36U A43C G44C G48C, the yeast fitness is at most 0.5.
Regarding U13G U19C G38C A42G G56C U59A A70U, the yeast fitness is at most 0.5.
On to G17A A36U G68A, for which the yeast fitness is at most 0.5.
Regarding C11G C31A, the yeast fitness is 0.508.
Regarding A36U C49A, the yeast fitness was at most 0.5.
In the case of U19A A36G A40G C55G A65C it was at most 0.5; in that of C31A A40G A43C G44A A70U, at most 0.5.
Regarding U35G C55U, the yeast fitness is 0.664.
In the case of U16G C22U A37U G50C G67A, the yeast fitness was at most 0.5.
In the case of G50A U53A C61U it was 0.532; in that of U2C U7C U19C C34U G52A U59A, at most 0.5.
Take G44C C46U G48A C61G: the yeast fitness was at most 0.5.
Take A20G C34G A43U C66U: the yeast fitness is 0.546.
For the variant C11G G18C A21G A40U G48A, the yeast fitness is at most 0.5.
For C27U G41C A65C, the yeast fitness turned out to be 0.588.
For the variant C33A A40U, the yeast fitness is 0.741.
With A42C C46A A57U, the yeast fitness was at most 0.5.
In the case of C31U U59C it was 1.02; in that of G41C G48C C55G A69U, at most 0.5; in that of C22G C27G C33U G41A G50A, at most 0.5.
Turning to U3A U16G A37U C49A, the yeast fitness is at most 0.5.
For C31U C60U U64C, the yeast fitness was determined as 0.695.
Regarding G6A U8A G9A A14C A21U A40G, the yeast fitness is at most 0.5.
Consider C24U C30U G68C, for which the yeast fitness is at most 0.5.
Take C5U U16C U19C U26A C55U: the yeast fitness is at most 0.5.
As for G6A C55G C62U, the yeast fitness is at most 0.5.
As to C5G C34G G68C, the yeast fitness is at most 0.5.
For C27U C29A A43G A57U, the yeast fitness is at most 0.5.
Next, U35G G38A G52C: 0.678; C11U C34U G38A G44C C60U C61U: at most 0.5.
As to G25A C66G, the yeast fitness was 0.962.
In the case of C22A C24G C34G A43U it was at most 0.5; in that of A20U C33G C60G A70G, at most 0.5.
For the variant G18A C27U U32A G48A G51A, the yeast fitness was at most 0.5.
Next, C24G U54G A70G: at most 0.5.
Take A43C A70G: the yeast fitness amounted to 1.05.
For the variant A14U A45G U53C, the yeast fitness is at most 0.5.
As to A21C C27G C29A, the yeast fitness is at most 0.5.
In the case of C11A A21C A40C U64C it was at most 0.5.
Next, C11A U13A A20U G50C U53A A57U A65U: at most 0.5; C5U A15U G17C: at most 0.5; U7C U8G U19C C30U A36U: at most 0.5.
Next, G9A A57G: 0.933; A21G U47C C49U C62A: at most 0.5; C4U U47A G67A: 0.607.
As to C4U G25C C34U A65U, the yeast fitness was at most 0.5.
In the case of G6A it was 0.965.
In the case of U2C C4A G23A C24G G68A it was at most 0.5; in that of U16G G56C A65U, at most 0.5; in that of U19C A20C C31G G68C, at most 0.5.
With U13A C33U G52C A65G, the yeast fitness is at most 0.5.
Take G9A A14C G25C: the yeast fitness was at most 0.5.
